# Experimental data taken from PubChem BioAssay AID504834 (National Center for Advancing Translational Sciences (NCATS), 2011).
# Out of some 320,000 compounds screened, about 22,000 (6.9%) were called active. The inconclusive results got no clear call from the source; some entries with a clear call stand among them for comparison. The call rests on the fitted dose curve; in most records, active means well fitted inhibition curve with a large enough effect; inconclusive means small, poorly fitted or top-dose-only effect, or another doubt; inactive means no such curve, though single readings can be large or run the other way. A potency beside an inconclusive call is a rough fit, not a confirmed value.
# Test: Primary qHTS for delayed death inhibitors of the malarial parasite plastid, 96 hour incubation
# Conditions: P. falciparum luciferase reporter growth; series mostly up to 28.7 µM
# Outline: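 96 h incubation, 37 C, 5% CO2, of luciferase-reporter P. falciparum-infected RBCs (2% hematocrit, 0.05% parasitemia final) with test compounds; endpoint luminescence.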
# Potency means the concentration at half of the fitted maximal effect.
row,SMILES,Potency
1,COc1ccc(C(=O)NCc2nnc(SCC(=O)Nc3cccc(F)c3)o2)cc1,inactive
2,Cc1cccc(C(=O)OC(C)C(=O)NCC2CCCCC2)c1O (centres undefined),inactive
3,CCCCOc1ccc(CN2CCSCC2)cc1,inactive
4,Cc1cc(C(=O)Nc2cccc3ccccc23)c(C)o1,"inconclusive: 11.7 µM [inhibitor, single point]"
5,O=[N+]([O-])c1ccc(-n2nnnc2CN2CCCCC2)cc1,inactive
6,S=C(NCCN1CCCCC1)Nc1ccc(Br)cc1,"inconclusive: 18.5 µM [inhibitor, partial curve, poor fit]"
7,CC(=O)Nc1ccc(/C(C)=N\NC(=O)c2ccc(-c3ccccc3)cc2)cc1,"inconclusive: 0.37 µM [inhibitor, full curve, poor fit]"
8,COc1ccc(C(C)=O)cc1CSc1nnc2c(Cl)cc(Cl)cn12,"inconclusive: 1.17 µM [inhibitor, partial curve, poor fit]"
9,C=CCNC(=S)NNc1nc(Nc2ccccc2)nc(N2CCCCC2)n1,"inconclusive: 14.7 µM [inhibitor, single point]"
10,O=C(NCCc1ccccc1)c1cc(=O)[nH]c2ccccc12,inactive
11,Cc1ccc(CN(C(=O)CNC(=O)c2cccs2)C(C(=O)NCC2CCCO2)c2ccccc2)cc1 (centres undefined),"inconclusive: 11.7 µM [inhibitor, single point]"
12,CC(=O)Nc1cccc(Nc2nc(-c3ccccc3F)nc3ccccc23)c1,"inconclusive: 18.5 µM [inhibitor, single point]"
13,Cc1ccc(NC(=S)N2CCCCCC2)c(C)c1,inactive
14,O=C(NCCCN1CCCCC1)c1ccc(CS(=O)c2ccc(Cl)cc2)o1 (centres undefined),"inconclusive: 4.15 µM [inhibitor, partial curve]"
15,O=C(NCc1cc([N+](=O)[O-])ccc1O)c1cccnc1Sc1ccccc1Cl,"inconclusive: 10.4 µM [inhibitor, partial curve, poor fit]"
16,CCCN1CCN(CCCNC(=S)Nc2ccc(OC)cc2)CC1,"inconclusive: 18.5 µM [inhibitor, single point]"
17,CC(C)CC1Nc2ncnc(N3CCCCC3)c2N(Cc2ccc(Br)cc2)C1=O (centres undefined),"inconclusive: 3.29 µM [inhibitor, single point]"
18,Cc1ccc(S(=O)(=O)N2CCC(=O)N(C(COCc3ccccc3)C(C)C)CC2)cc1 (centres undefined),"inconclusive: 13.1 µM [inhibitor, single point]"
19,CC(=O)c1cccc(S(=O)(=O)NCCCN2CCOCC2)c1,"inconclusive: 3.29 µM [inhibitor, full curve, poor fit]"
20,COC(=O)/N=C/c1c(NCc2ccccc2)nc2c(C)cccn2c1=O,"inconclusive: 13.1 µM [inhibitor, partial curve, poor fit]"
21,CC(=O)/C(N=Nc1cc2c(c([N+](=O)[O-])c1C)C(C)(C)CC2(C)C)=C(\C)O,"inconclusive: 16.5 µM [inhibitor, single point]"
22,CCN(CC)C(=O)C1CCN(S(=O)(=O)c2ccc(C3CNC(=O)C3)cc2)CC1 (centres undefined),inactive

row,SMILES,Potency
1,S=C(Nc1ccc(Oc2ccccc2)cc1)N(CCCN1CCOCC1)Cc1ccccn1,"inconclusive: 3.29 µM [inhibitor, full curve, poor fit]"
2,COCCn1c(C)cc(/C=C2/SC(=O)N(C(C)C(=O)OC)C2=O)c1C (centres undefined),inactive
3,O=C(Nc1ccccc1)Nc1ccccn1,inactive
4,O=C(CN1CCCC1)Nc1ccc(Br)cc1[N+](=O)[O-],"inconclusive: 1.17 µM [inhibitor, partial curve, poor fit]"
5,CSc1ccccc1NC(=O)COc1ccccc1Cl,"inconclusive: 18.5 µM [inhibitor, partial curve, poor fit]"
6,N#Cc1ccc(C2=NC(C(F)(F)F)(C(F)(F)F)c3c(n(Cc4ccco4)c(=O)[nH]c3=O)N2)cc1,"inconclusive: 0.0465 µM [inhibitor, full curve, poor fit]"
7,CCc1ccc2c(c1)cc(CN(C(=S)Nc1ccccc1Cl)C1CC1)c1nnnn12,"inconclusive: 4.15 µM [inhibitor, full curve, poor fit]"
8,COc1ccc(CC2S/C(=N/N=C/c3ccccc3O)NC2=O)cc1 (centres undefined),"inconclusive: 10.4 µM [inhibitor, partial curve]"
9,O=C(C1CCC1)N1CCN(S(=O)(=O)c2ccc(Br)cc2Cl)CC1,"inconclusive: 11.7 µM [inhibitor, single point]"
10,COc1ccc(C2/C(=C(\O)c3ccc4c(c3)OCCO4)C(=O)C(=O)N2CCCn2ccnc2)cc1 (centres undefined),"inconclusive: 14.7 µM [inhibitor, single point]"
11,O=C(COC(=O)CCS(=O)(=O)c1ccc(Cl)cc1)NC1CCCCC1,inactive
12,CN(c1ccccc1)S(=O)(=O)c1ccc(NC(=O)c2ccc(-c3ccccc3)cc2)cc1,"inconclusive: 16.5 µM [inhibitor, partial curve, poor fit]"
13,CCN(CC)S(=O)(=O)c1ccc(N2CCCC2)c(NS(=O)(=O)c2ccc(OC)cc2)c1,"inconclusive: 10.4 µM [inhibitor, single point]"
14,CCOc1ccc(NC(=O)c2cn(-c3ccc(OCC)cc3)c(=O)c3cc(OC)c(OC)cc23)cc1,active: 3.29 µM
15,O=C(CCSc1ccc(Br)cc1)c1ccc(O)cc1,inactive
16,COc1ccc(C(=O)N2CCC(C(=O)c3c(C)cc(C)cc3C)CC2)cc1,"inconclusive: 11.7 µM [inhibitor, partial curve]"
17,O=c1c2sc(-c3ccccc3)cc2nc2n1CCC2,inactive
18,COc1ccc(C(=O)N2CCCC(Nc3ccc(C(C)C)cc3)C2)c(OC)n1 (centres undefined),inactive
19,O=Cc1cn(Cc2ccc(F)cc2)c2ccccc12,inactive
20,COc1ccc(CNC(=O)CSc2nn3c(=O)c(C(C)(C)C)nnc3s2)cc1OC,"inconclusive: 13.1 µM [inhibitor, single point]"
21,CCC1=[N+](CC(=O)c2ccc(C)cc2)CCn2c(C)ccc21,"inconclusive: 2.62 µM [inhibitor, full curve, poor fit]"
22,O=C(CN1CCC(NC(=O)c2ccco2)CC1)Nc1cccc2ccccc12,active: 10.4 µM

# Shown as tab-separated lines: 2 of the compounds above
row	SMILES	Potency
1	S=C(Nc1ccc(Oc2ccccc2)cc1)N(CCCN1CCOCC1)Cc1ccccn1	inconclusive: 3.29 µM [inhibitor, full curve, poor fit]
2	COCCn1c(C)cc(/C=C2/SC(=O)N(C(C)C(=O)OC)C2=O)c1C (centres undefined)	inactive
